# Results taken from patent US20250195603A1, “COMPOSITION FOR PREVENTING OR TREATING DENTAL CARIES” (HYSENSBIO CO., LTD., priority 2022, published 2025).
# Part of at least one peptide drawing is inferred or uncertain, most often the ends. No end group written: not given here.
# Tested on: Streptococcus mutans (S. mutans, KCOM 1054)
# Assay: Stability of peptide in the pharmaceutical composition in S. mutans environment (MALDI-TOF)
# Assay type: in vitro ADME
# Conditions: 100 μg KH002 in 1.5% carboxyl methyl cellulose mixed with 100 μl strain (OD600 1.0), 1, 5, 15, 30 minutes, FIG. 1B
sequence,measurement,value
"KYKQKRRSYK [KH001, KYKQKRRSYK]",stability of the peptide in the environment of S. mutans,stably maintained
